Measurements as given in paper PMC10123104.
No constants are given. Whether binding was seen depends on the method and setting.

Amino acid sequences for entries named in this document (tags omitted).
UniProt P42641: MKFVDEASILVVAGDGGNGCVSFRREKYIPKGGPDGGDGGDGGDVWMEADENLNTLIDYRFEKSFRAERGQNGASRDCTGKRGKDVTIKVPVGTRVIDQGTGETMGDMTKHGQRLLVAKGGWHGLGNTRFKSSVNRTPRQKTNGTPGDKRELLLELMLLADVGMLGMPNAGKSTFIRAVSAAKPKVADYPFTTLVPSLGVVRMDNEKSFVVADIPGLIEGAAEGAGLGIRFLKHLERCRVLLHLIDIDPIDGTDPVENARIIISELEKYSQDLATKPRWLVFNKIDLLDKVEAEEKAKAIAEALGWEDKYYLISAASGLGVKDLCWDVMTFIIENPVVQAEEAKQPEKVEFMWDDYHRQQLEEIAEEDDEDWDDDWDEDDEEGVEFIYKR

Biological target: N-terminally His6-tagged ObgE protein (Escherichia coli Obg) (E. coli) (UniProt P42641)
Assay: SEC-MALS; Superdex 200 5/150 GL increase; ObgE and YbiB alone at 1.5 mg/ml; YbiB and ObgE mixed 1:3 (20 and 60 μM); 20 mM HEPES pH 7.5, 150 mM NaCl, 5 mM MgCl2, 5% glycerol, 2 mM DTT; both purified

**Q.** For “N-terminally His6-tagged ObgE protein (Escherichia coli Obg) (from UniProt P42641 1-390) (enzyme)”, which binding is on record?
**A.** no binding (tested: 1.5 mg/ml)
